The entries are a selection whose mix differs from that of the whole data set. At the low end of the ranking the order means little.

The experiment concerns the target SPI1 (UniProt P17947). Kind of experiment: DAPPL (digital affinity profiling via proximity ligation, sequencing). As to conditions: 10 mM Tris-HCl pH 7.5, 50 mM NaCl, 1 mM DTT, 4% glycerol, room temperature, 30 min; GST-TFs on glutathione beads, 16-mer random dsDNA library, 0.1% …; high values mean tight binding; double strand, one strand shown; scale: fold enrichment (6-mer frequency, TF over GST control).
For TCAAGA, the binding signal was found to be 0.886. The figure for ATATTG is 1.28; for CGGCCT it is 0.995; for ACACCA it is 0.973. With TAGTTG the figure was 0.94; with GTTTGT, 0.96; with CGTAGC, 1.04.

Take ACAAAA: the binding signal turned out to be 1.22. The figure for CCCGAT is 1.16; for TTTCAT it is 1.14; for GCTCTA it is 1.04. CACCGA yielded a binding signal of 0.987. As for ATCGTT, the binding signal is 0.935. With GCCAGA the figure was 0.646; with TTCGCA, 1.32; with GTATGG, 1.06.

For AACCGG, the binding signal is 1.7.

As to GTCGAC, the binding signal worked out at 1.08.

The sequence GTCTAG showed a binding signal of 0.88. GACATT returned a binding signal of 1.13. With CTAGGA the figure was 0.805. The figure for CCAAAC is 1.06.

For CTCGAC, the binding signal worked out at 1.34.

In turn, GTAGAT yielded a binding signal of 0.901.

Regarding AACTGT, the binding signal amounted to 0.954.

Sequence GATATT yielded a binding signal of 0.98. Turning to TTGGAA, the binding signal came out at 0.972. The sequence CCATAC had a binding signal of 1.18.

GCAGAT displayed a binding signal of 0.924.

Regarding ATCCGT, the binding signal amounted to 0.966. The figure for CAACTG is 1.05; for ATAATA it is 1.18. The sequence GCGATC gave a binding signal of 1.

For AAGGCC, the binding signal came to 0.91. The figure for CCTTGC is 1.27; for CTGTCT it is 1.33; for GCCCCG it is 1.08. With ATGCCA the figure was 0.988.

The values are drawn from publication PMC7862700.
